Laboratory results as given in patent US20180320217A1, “METHODS FOR SAMPLING AND MEASURING ORAL LAVAGE PROTEINS” (The Procter & Gamble Company, priority 2017, published 2018).

Tested on: peptides in gingival brush samples
Assay: Protein and peptide profiling of gingival brush samples (LC-MS/MS), TABLE 23
Type: in vivo, human
Details: for Mean Cntl Bsl / Mean Cntl Wk3 / Mean TrtBsl / Mean TrtWk3: peptide abundance, gingival brush samples; for Mean Cntl Bsl / Mean Cntl Wk3 / Mean CntlBsl (peptide abundance) / Mean CntlWk3 (peptide abundance): control regimen; for Mean Cntl Bsl / Mean TrtBsl / Mean CntlBsl (peptide abundance) / Mean TrtBsl (peptide abundance): baseline; for Mean Cntl Wk3 / Mean TrtWk3 / Mean CntlWk3 (peptide abundance) / Mean TrtWk3 (peptide abundance): week 3; for Mean TrtBsl / Mean TrtWk3 / Mean TrtBsl (peptide abundance) / Mean TrtWk3 (peptide abundance): treatment regimen; for Mean CntlBsl (peptide abundance) / Mean CntlWk3 (peptide abundance) / Mean TrtBsl (peptide abundance) / Mean TrtWk3 (peptide abundance): pooled gingival brush samples, LC-MS/MS

Row | Substance | Mean Cntl Bsl | Mean Cntl Wk3 | Mean TrtBsl | Mean TrtWk3 | Mean CntlBsl (peptide abundance) | Mean CntlWk3 (peptide abundance) | Mean TrtBsl (peptide abundance) | Mean TrtWk3 (peptide abundance)
1 | LYSC_HUMAN | 685.6 | 419.4 | 286.6 | 783.6 | – | – | – | –
2 | 1433S_HUMAN | 2008.9 | 4952.8 | 3283.7 | 6593.3 | – | – | – | –
3 | PPIA_HUMAN | 10474.4 | 13854.3 | 10876.4 | 16838.5 | – | – | – | –
4 | CALL3_HUMAN | 5891.9 | 12940.4 | 9733.9 | 15869.0 | – | – | – | –
5 | EZR1_HUMAN | 13381.9 | 23893.0 | – | 29354.9 | – | – | – | –
6 | HBB_HUMAN | 80565.4 | 252012.9 | 79546.8 | 1001395.5 | – | – | – | –
7 | ENOA_HUMAN | 30252.6 | 45538.4 | 33697.9 | 71243.0 | – | – | – | –
8 | GOGB1_HUMAN | 10960.0 | 14976.9 | 13618.7 | 16567.4 | – | – | – | –
9 | KPYM_HUMAN | – | – | – | – | 12918.4 | 19760.9 | 16658.2 | 23529.4
10 | TPIS_HUMAN | – | – | – | – | 4301.4 | 7296.5 | 4916.5 | 9475.5
11 | PEPL_HUMAN | 6810.3 | 6172.7 | 8446.6 | 5882.9 | – | – | – | –
12 | CO3_HUMAN | 7378.4 | 7432.8 | 6462.6 | 7987.3 | – | – | – | –
13 | ATPB_HUMAN | 3158.5 | 3701.7 | 1275.7 | 3129.0 | – | – | – | –
14 | TERA_HUMAN | – | – | – | – | 5692.4 | 9616.4 | 6262.0 | 11337.6
15 | HSPB1_HUMAN | 86986.6 | 56903.3 | 82641.1 | 47943.4 | – | – | – | –
16 | LAMC1_HUMAN | 16571.0 | 6151.9 | 15872.0 | 7213.4 | – | – | – | –
